Data: US12102685B2 (priority 2020, dated 2024)

Assay: peptide synthesis
Settings: percent yield of correct species by MS; for step yield: lipidation step

Substance | conjugation yield (conjugation step) | step yield
PEPTIDE1{[vlp].K.K.G.F.Y.K.K.K.Q.C.R.P.S.K.G.R.K.R.G.F.C.W}$$$$V2.0 | 84.9% | –
PEPTIDE1{[lau].K.K.G.F.Y.K.K.K.Q.C.R.P.S.K.G.R.K.R.G.F.C.W}$$$$V2.0 | – | 96.7%
PEPTIDE1{[dec].K.K.G.F.Y.K.K.K.Q.C.R.P.S.K.G.R.K.R.G.F.C.W}$$$$V2.0 | – | 98.0%

HELM strings list residues between dots; [ac] is acetyl, [am] amide, other brackets name non-standard units.
